# Source: publication PMC4151100
# Sequences of proteins named here, by UniProt entry; tags and fusion partners are left off. Residues count along the entry.
# UniProt Q13308, 31-1070: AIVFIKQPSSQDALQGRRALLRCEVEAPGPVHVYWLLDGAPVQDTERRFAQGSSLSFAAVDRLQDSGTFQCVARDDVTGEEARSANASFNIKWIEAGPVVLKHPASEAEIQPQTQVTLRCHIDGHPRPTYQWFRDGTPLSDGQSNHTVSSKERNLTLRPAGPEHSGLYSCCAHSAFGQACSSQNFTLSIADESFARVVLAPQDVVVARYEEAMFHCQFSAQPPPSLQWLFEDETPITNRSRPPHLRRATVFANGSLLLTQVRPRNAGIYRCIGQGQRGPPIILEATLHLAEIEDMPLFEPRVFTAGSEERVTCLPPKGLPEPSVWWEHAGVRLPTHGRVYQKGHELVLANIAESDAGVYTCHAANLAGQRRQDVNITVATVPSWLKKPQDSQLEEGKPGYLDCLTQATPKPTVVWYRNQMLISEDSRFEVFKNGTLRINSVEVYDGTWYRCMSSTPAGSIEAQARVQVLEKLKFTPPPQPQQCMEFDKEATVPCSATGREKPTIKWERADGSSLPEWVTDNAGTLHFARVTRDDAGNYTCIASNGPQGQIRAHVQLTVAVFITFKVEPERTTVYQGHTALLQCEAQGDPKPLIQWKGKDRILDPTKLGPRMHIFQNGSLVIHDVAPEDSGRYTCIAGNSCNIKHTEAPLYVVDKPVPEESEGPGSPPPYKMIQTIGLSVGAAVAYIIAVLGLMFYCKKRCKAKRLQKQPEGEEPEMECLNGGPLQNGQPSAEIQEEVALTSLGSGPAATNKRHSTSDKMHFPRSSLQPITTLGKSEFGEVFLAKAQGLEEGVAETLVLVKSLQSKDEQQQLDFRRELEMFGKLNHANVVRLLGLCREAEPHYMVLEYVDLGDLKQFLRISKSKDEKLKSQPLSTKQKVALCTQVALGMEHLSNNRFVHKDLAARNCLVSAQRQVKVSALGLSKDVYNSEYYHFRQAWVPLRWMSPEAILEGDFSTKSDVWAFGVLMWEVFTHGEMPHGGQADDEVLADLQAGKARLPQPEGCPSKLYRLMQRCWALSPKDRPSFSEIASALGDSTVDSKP
# The exact form of at least one protein or probe is not confirmed. Results from cells or extracts need not show a direct contact. At least one verdict rests on a figure or table, not on a statement of the authors.
# Tests used:
# [1] = biological target: protein tyrosine kinase 7 (PTK7) on HeLa cells (UniProt Q13308); experiment: two-photon luminescence cell imaging; conditions: GIAN-Sgc8, 4 C, 2 h, 95-C cells gave no positive signal, adsorbed on graphene-isolated Au nanocrystal (GIAN), Working buffer 20 mM Tris-HCl, 100 mM NaCl, 2 mM MgCl2, pH 7.4, cell imaging 2 h at 4 C, flow cytometry buffer and temperature not given, protein on the cell surface, single-stranded DNA
# [2] = biological target: protein tyrosine kinase 7 (PTK7) on HeLa cells (UniProt Q13308); experiment: flow cytometry; conditions: much stronger than 95-C cells, attributed to higher PTK7 expression, Working buffer 20 mM Tris-HCl, 100 mM NaCl, 2 mM MgCl2, pH 7.4, cell imaging 2 h at 4 C, flow cytometry buffer and temperature not given, protein on the cell surface, label: 3'-FAM, single-stranded DNA
sequence,measurement,setting,value
AAAAAAAAATCTAACTGCTGCGCCGCCGGGAAAATACTGTACGGTTAGA [Sgc8 (on GIAN)],binding result,[1],binds
AAAAAAAAATCTAACTGCTGCGCCGCCGGGAAAATACTGTACGGTTAGA [Sgc8-FAM],binding result,[2],binds
